Experimental data as given in paper PMC9176222.
Results are given in words; binding and its absence hold for the method and conditions named. Binding seen in cells or lysates may run through a third protein. Some binding calls cover weakened binding; strength is not graded here.

What was measured:
[1] = biological target: T1, CIPK26, coding sequence without the stop codon in pSPYNE(R)173-CAMBIA1300 (Arabidopsis thaliana) (UniProt Q84VQ3); assay: split reporter; BiFC in N. benthamiana, 48 h after transfection; CIPK in pSPYNE(R)173, MTP10 in pSPYCE(M); YFP signal by confocal microscopy
T1 sequence: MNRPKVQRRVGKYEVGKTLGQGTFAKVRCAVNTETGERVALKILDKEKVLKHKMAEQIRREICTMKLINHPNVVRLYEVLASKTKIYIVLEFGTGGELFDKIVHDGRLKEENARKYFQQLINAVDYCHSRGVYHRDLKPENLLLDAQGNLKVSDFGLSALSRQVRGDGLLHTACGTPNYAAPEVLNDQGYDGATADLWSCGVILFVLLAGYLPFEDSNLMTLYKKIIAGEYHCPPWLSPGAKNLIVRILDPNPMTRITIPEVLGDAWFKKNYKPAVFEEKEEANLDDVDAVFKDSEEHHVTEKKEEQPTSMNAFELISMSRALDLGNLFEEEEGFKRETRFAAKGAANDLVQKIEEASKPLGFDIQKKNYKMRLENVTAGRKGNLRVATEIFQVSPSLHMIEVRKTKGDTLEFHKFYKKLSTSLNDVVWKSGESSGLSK

[2] = biological target: T2, CIPK7, coding sequence without the stop codon in pSPYNE(R)173-CAMBIA1300 (Arabidopsis thaliana) (UniProt Q9XIW0); assay: as above
T2 sequence: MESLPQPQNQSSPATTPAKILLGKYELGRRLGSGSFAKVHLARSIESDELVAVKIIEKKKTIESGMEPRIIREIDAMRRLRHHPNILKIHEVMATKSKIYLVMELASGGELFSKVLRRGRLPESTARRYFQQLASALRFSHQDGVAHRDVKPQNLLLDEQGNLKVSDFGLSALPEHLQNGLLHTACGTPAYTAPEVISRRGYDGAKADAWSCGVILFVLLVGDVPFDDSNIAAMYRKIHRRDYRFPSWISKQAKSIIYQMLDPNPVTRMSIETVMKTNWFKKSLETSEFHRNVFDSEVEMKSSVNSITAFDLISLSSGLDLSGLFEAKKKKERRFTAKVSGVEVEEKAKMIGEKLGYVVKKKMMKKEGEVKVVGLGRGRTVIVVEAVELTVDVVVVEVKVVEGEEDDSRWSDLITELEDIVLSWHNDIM

B1: MTP10 (Metal Tolerance Protein 10), coding sequence in pSPYCE(M)-CAMBIA1300 (protein, UniProt Q0WU02 1-428)
chain: MPLNSYIFFLFLTTSPRNTFFGIRTHSDRIMATEHITRTGDEYNVELLPSDDDAPPLESSWRLNLDAFQLPSSTGGRHDGRTRFSRYFRTPRKERRVSEYYKKQERLLEGFNEMETIHENGFASGVPTEEEMKKLAKSERLAVHISNATNLVLFVAKVYASMESRSMAVIASTLDSLLDLLSGFILWFTANAMRKPNQFHYPIGKRRMQPVGIIVFASVMATLGLQVLLESGRQLVAKSGIHMNSTEEKWMIGIMVSVTIVKFLLMLYCRGFQNEIVRAYAQDHLFDVVTNSIGLATAVLAVKFYWWIDPTGAILIALYTIATWARTVLENVHSLIGRSAPPDFLAKLTFLIWNHHEQIKHIDTVRAYTFGSHYFVEVDIVLPEDMRLQEAHNIGETLQEKLEQLAEVERAFVHIDFEFTHRPEHKCN
For B1, the binding [1] was “binds” and the binding [2] was “binds”.
